Data as given in PubChem BioAssay AID504791 (Drosophila RNAi Screening Center, 2011)

Test: 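Genes of the fly required for silencing by miRNA, siRNA or endo-siRNA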 (primary screen)
Cell system: Drosophila S2-derived reporter cells
Knock-down reagent: long dsRNA against Drosophila genes, about 150-250 ng dsRNA per well (siRNA assay); about 80-120 ng (miRNA assay)
Timing: about 5 days (siRNA assay); about 4 days (miRNA assay)
Challenge: copper sulfate induction of reporters: 25 µM (siRNA assay); 200 mM stated (miRNA assay), 1-2 days before reading
Measurement: 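Dual luciferase assay: Renilla to firefly signal ratio in each well, scaled to the mean ratio of its plate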
Units: stable assay Renilla, run 1 in luminescence; stable assay firefly, run 1 in luminescence
Active means: 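a well was a first-pass pick when its plate-scaled ratio rose above 1.5 (siRNA assay) or 1.6 (miRNA assay), or dropped below 0.6; a gene counted only if two separate dsRNAs agreed on retest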
In all, the deposit lists about 23,000 reagents; this is an unselected part of those with a known target gene and a result. Of all reagents, 199 (0.86%) are marked active. 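Plate-scaled ratios behind the calls are not deposited; printed light signals are raw; many rows marked increased or decreased are still called inactive.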 Not given: the direction of the score.

{"gene":"Snap24","DRSC id":"DRSC16864","stable assay Renilla, run 1":6635,"stable assay firefly, run 1":4.06e5,"outcome":"inactive"}
{"gene":"CG14613","DRSC id":"DRSC20625","stable assay Renilla, run 1":7825,"stable assay firefly, run 1":4.65e5,"outcome":"inactive"}
{"gene":"BomBc2","DRSC id":"DRSC06502","stable assay Renilla, run 1":4790,"stable assay firefly, run 1":3.01e5,"outcome":"inactive"}
{"gene":"CG31021","DRSC id":"DRSC22319","stable siRNA reporter change":"reporter ratio raised past the hit cutoff","stable assay Renilla, run 1":8369,"stable assay firefly, run 1":1.26e5,"outcome":"inactive"}
{"gene":"CG31493","DRSC id":"DRSC12583","stable assay Renilla, run 1":8307,"stable assay firefly, run 1":4.23e5,"outcome":"inactive"}
{"gene":"CG2841","DRSC id":"DRSC17699","stable assay Renilla, run 1":6815,"stable assay firefly, run 1":3.29e5,"outcome":"inactive"}
{"gene":"CG2841","DRSC id":"DRSC18824","stable assay Renilla, run 1":6079,"stable assay firefly, run 1":3.57e5,"outcome":"inactive"}
{"gene":"CG2841","DRSC id":"DRSC22106","stable assay Renilla, run 1":8554,"stable assay firefly, run 1":5.78e5,"outcome":"inactive"}
{"gene":"Creld","DRSC id":"DRSC00308","stable assay Renilla, run 1":6875,"stable assay firefly, run 1":4.10e5,"outcome":"inactive"}
{"gene":"CG12836","DRSC id":"DRSC06182","stable assay Renilla, run 1":6891,"stable assay firefly, run 1":4.79e5,"outcome":"inactive"}
{"gene":"Grp170","DRSC id":"DRSC18524","stable assay Renilla, run 1":6232,"stable assay firefly, run 1":3.05e5,"outcome":"inactive"}
{"gene":"Zyx","DRSC id":"DRSC17186","stable assay Renilla, run 1":5907,"stable assay firefly, run 1":3.10e5,"outcome":"inactive"}
{"gene":"ProRS-m","DRSC id":"DRSC08261","stable assay Renilla, run 1":6092,"stable assay firefly, run 1":3.81e5,"outcome":"inactive"}
{"gene":"dcma","DRSC id":"DRSC00246","stable assay Renilla, run 1":5359,"stable assay firefly, run 1":3.66e5,"outcome":"inactive"}
{"gene":"dcma","DRSC id":"DRSC00338","stable assay Renilla, run 1":8569,"stable assay firefly, run 1":5.14e5,"outcome":"inactive"}
{"gene":"Ptpmeg","DRSC id":"DRSC08684","stable assay Renilla, run 1":10636,"stable assay firefly, run 1":3.19e5,"outcome":"inactive"}
{"gene":"CG6000","DRSC id":"DRSC15938","stable assay Renilla, run 1":6974,"stable assay firefly, run 1":3.32e5,"outcome":"inactive"}
{"gene":"clt","DRSC id":"DRSC04621","stable assay Renilla, run 1":7694,"stable assay firefly, run 1":4.69e5,"outcome":"inactive"}
{"gene":"CG10874","DRSC id":"DRSC00297","stable assay Renilla, run 1":7854,"stable assay firefly, run 1":6.23e5,"outcome":"inactive"}
{"gene":"CG3690","DRSC id":"DRSC18170","stable assay Renilla, run 1":6083,"stable assay firefly, run 1":3.44e5,"outcome":"inactive"}
{"gene":"CG3690","DRSC id":"DRSC18641","stable assay Renilla, run 1":6118,"stable assay firefly, run 1":4.63e5,"outcome":"inactive"}
{"gene":"tefu","DRSC id":"DRSC16060","stable assay Renilla, run 1":7700,"stable assay firefly, run 1":3.62e5,"outcome":"inactive"}
{"gene":"Tektin-A","DRSC id":"DRSC01921","stable assay Renilla, run 1":22511,"stable assay firefly, run 1":1.24e6,"outcome":"inactive"}
{"gene":"Ttc1","DRSC id":"DRSC15016","stable assay Renilla, run 1":6062,"stable assay firefly, run 1":4.35e5,"outcome":"inactive"}
{"gene":"Ttc1","DRSC id":"DRSC22469","stable assay Renilla, run 1":3776,"stable assay firefly, run 1":3.76e5,"outcome":"inactive"}
{"gene":"Eig71Ec","DRSC id":"DRSC11150","stable assay Renilla, run 1":8438,"stable assay firefly, run 1":4.94e5,"outcome":"inactive"}
{"gene":"CG7322","DRSC id":"DRSC20036","stable assay Renilla, run 1":7138,"stable assay firefly, run 1":3.77e5,"outcome":"inactive"}
{"gene":"CG17032","DRSC id":"DRSC10241","stable assay Renilla, run 1":6442,"stable assay firefly, run 1":3.30e5,"outcome":"inactive"}
{"gene":"CG32091","DRSC id":"DRSC10141","stable assay Renilla, run 1":5443,"stable assay firefly, run 1":4.43e5,"outcome":"inactive"}
{"gene":"CG32091","DRSC id":"DRSC10820","stable assay Renilla, run 1":5999,"stable assay firefly, run 1":3.91e5,"outcome":"inactive"}
{"gene":"CG8209","DRSC id":"DRSC10970","stable assay Renilla, run 1":6011,"stable assay firefly, run 1":4.58e5,"outcome":"inactive"}
{"gene":"stac","DRSC id":"DRSC13693","stable assay Renilla, run 1":4263,"stable assay firefly, run 1":3.13e5,"outcome":"inactive"}
{"gene":"stac","DRSC id":"DRSC14392","stable assay Renilla, run 1":8308,"stable assay firefly, run 1":4.61e5,"outcome":"inactive"}
{"gene":"stac","DRSC id":"DRSC22197","stable assay Renilla, run 1":8931,"stable assay firefly, run 1":5.63e5,"outcome":"inactive"}
{"gene":"CG7916","DRSC id":"DRSC01901","stable assay Renilla, run 1":7599,"stable assay firefly, run 1":3.12e5,"outcome":"inactive"}
